In article PMC12014562:
No constants are given. Whether binding was seen depends on the method and setting. Binding seen in cells or lysates may run through a third protein. These calls come from enrichment with a bait or labelling near it, and not all partners need be listed. Where a sequence is shown, tags or fusion partners need not be part of it.

T1: Sll0528-TurboID (site-2 protease Sll0528 fused in-frame to TurboID, line P0528T) (Synechocystis sp. PCC 6803) (UniProt Q55518)
T1 sequence: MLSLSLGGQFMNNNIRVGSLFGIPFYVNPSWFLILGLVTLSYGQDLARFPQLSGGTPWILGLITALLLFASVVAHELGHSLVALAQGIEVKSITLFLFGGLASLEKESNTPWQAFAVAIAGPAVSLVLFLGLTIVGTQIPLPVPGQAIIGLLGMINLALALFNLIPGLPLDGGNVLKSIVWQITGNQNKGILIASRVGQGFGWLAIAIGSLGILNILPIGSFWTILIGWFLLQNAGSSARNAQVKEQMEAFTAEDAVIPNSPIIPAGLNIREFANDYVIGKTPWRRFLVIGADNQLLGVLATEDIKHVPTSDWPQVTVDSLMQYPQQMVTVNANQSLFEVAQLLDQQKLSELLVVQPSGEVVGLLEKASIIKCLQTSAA

B1: transcription factor RbcR (Sll0998), endogenous (protein, UniProt P73123 1-345)
chain: MSDIPFTLDQLRILKAIASEGSFKRAADTLYVSQPAVSLQVQNLEKQLSVPLFDRGGRKAQLTEAGHLLLNYGEKIITLCQETCRAIEDLQNLQGGTLIVGASQTTGTYLLPRMIGMFRQQYPDVTVQLQVHSTRRTAWGVANGQVDLAIIGGEVPAELQETLTVLPYAEDELALILPVLHPLAQAETIQKEDLYKLKFISLDSQSTIRKVIDKVLSQGEIDTKRLKIEMELNSIEAIKNAVQSGLGAAFVSTTAIEKELEMNVLHIAPIKNVEIRRVLSVIINPNRYRSKASAAFIREVLPQFSTHPDALDPERLFANPYSSNNGDRQGDGKDGKGSIEIDSVT
B2: unknown protein Ssl1972, endogenous (protein, UniProt P72925 1-93)
chain: MISIDLTLKYSPMPVSVQRKEKDGAEALYQTIVTAMQGDRPQVLELTCEKQTEKKVAIMSDQISAVIVSEKDGAASAGKVPGFAALGQIVNQG
B3: nucleoid-associated protein ebfC (Slr1847), endogenous (protein, UniProt P73057 1-114)
chain: MAQGKGFGFGLGKIKELQEAFQKAQQVQEGAKVLQEELERMEIPGKSADGLVTVLMSGNQEPLSIEIDPSALEKGAEGLSASVTEAMKAAYAESTETMRSKMEELTSGLNLPGM
B4: signal recognition particle protein Slr1531, endogenous (protein, UniProt P74214 1-482)
chain: MFDALADRLEDAWKKLRGQDKISESNIKEALQEVRRALLAADVNLQVVKGFIKDVEQKALGADVISGVNPGQQFIKIVYDELVNLMGESNVPLAQAEQAPTVILMAGLQGTGKTTATAKLALYLRKQKRSALMVATDVYRPAAIDQLKTLGQQIDVPVFDLGSDANPVEIARQGVEKAKELGVDTVLIDTAGRLQIDPQMMAELAEIKQVVKPDDTLLVVDAMTGQEAANLTHTFHEQIGITGAILTKLDGDTRGGAALSVRQISGQPIKFVGVGEKVEALQPFYPDRLASRILNMGDVLTLVEKAQEAIDVGDVEKLQNKILEATFDFDDFIKQMRFMKNMGSLGGLLKMIPGMNKLSSGDIEKGEKELKRTEAMISSMTTEERKNPDLLAKSPSRRRRIAQGSGHSETDVSKLITNFTKMRTMMQQMGMGGMPGGMPGMGAMPGMGGGMFGGQPGPGFRGYRGGGGKPKKKKKKKGFGQL
B5: probable Clp protease subunit Slr0165, endogenous (protein, UniProt P74467 1-202)
chain: MPIGVPSVPFRLPGSQYERWIDIYTRLSQERIIFLGQEVNDSIANRIVAFLLYLDSDDPSKPIYLYINSPGGSVTAGMAIYDTMQYIKAEVITICVGLAASMGAFLLASGAPGKRLALPHARIMIHQPMGGTGRRQATDIDIEAREILRIRQQLNEIMAQRTGQTVEKIAKDTDRDYFLSAAEAKEYGLIDKVIENSTMGNN
B6: zinc metalloprotease FtsH (Sll1463), endogenous (protein, UniProt P73437 1-628)
chain: MAIKPQPQWQRRLASVLLWGSTIYLLVNLLAPALFRSQPPQVPYSLFIDQVEGDKVASVYVGQNEIRYQLKPEAEDEGKEKAAEGQILRTTPIFDLELPKRLEAKGIEFAAAPPAKNSWFGTLLSWVIPPLIFVGIWSFFLNRNNNGAPGGALAFTKSKAKVYVEGDSTKVTFDDVAGVEEAKTELSEVVDFLKFPQRYTALGAKIPKGVLLVGPPGTGKTLLAKAAAGEAGVPFFIISGSEFVELFVGAGAARVRDLFEQAKKQAPCIVFIDELDAIGKSRASGAFMGGNDEREQTLNQLLTEMDGFSAAGATVIVLAATNRPETLDPALLRPGRFDRQVLVDRPDLAGRLKILEIYAKKIKLDKEVELKNIATRTPGFAGADLANLVNEAALLAARNKQDSVTEADFREAIERVVAGLEKKSRVLSDKEKKIVAYHEVGHALVGAVMPGGGQVAKISIVPRGMAALGYTLQMPTEDRFLLNESELRDQIATLLGGRAAEEIVFDSITTGAANDLQRATDLAEQMVTTYGMSKVLGPLAYDKGQQNNFLGQGMGNPRRMVSDDTAKEIDLEVKEIVEQGHNQALAILEHNRDLLEAIAEKILEKEVIEGEELHHLLGQVQAPGTLVV
B7: global nitrogen regulator NtcA (Sll1423), endogenous (protein, UniProt P33779 1-225)
chain: MDQSLTQDRPLAAVFRRLGSELMPPVVETFDRSKTIFFPGDPAERVYFLLKGAVKLSRVYEAGEEITVALLRENSVFGVLSLVTGQRSDRFYHAVAFTPVELLSAPIEQVEQALKEHPDLSLLMLQGLSSRILQTEMMIETLAHRDMGSRLVSFLLILCRDFGVPAPDGIRIDLKLSHQAIAEAIGSTRVTVTRLLGDLREGNMISITKKKITVHNPVALSQQFT

Biological target: T1, Sll0528-TurboID (site-2 protease Sll0528 fused in-frame to TurboID, line P0528T) (Synechocystis sp. PCC 6803)
Assay: proximity labelling; Sll0528-TurboID under its native promoter in living Synechocystis line P0528T, without or with 30 min of 90 mM NH4Cl; 500 uM biotin, 15 min, room temperature; biotinylated proteins enriched on a streptavidin column and identified by 4D label-free LC-MS/MS; background control: soluble TurboID in line TBYPC

Binder | binding
B1 | binds
B2 | binds
B3 | binds
B4 | binds
B5 | binds
B6 | binds
B7 | binds
